Measurements as given in PubChem BioAssay AID590 (National Center for Advancing Translational Sciences (NCATS), 2007).
The whole screen tested about 59,000 compounds, of which about 6,500 (11%) were called active. Inconclusive results, whose numbers are uncertain, are shown with a selection of clear calls. Rule as the data show it: active = max dye-equivalent concentration above about 10 nM; inconclusive = mostly about 1.1 nM to 9.6 nM; inactive = weaker than that.

Test: qHTS Assay for Spectroscopic Profiling in A350 Spectral Region
Settings: Compound autofluorescence, 340/450 nm, Alexa 350 dye-equivalents; active compounds read high

| Structure (SMILES) | max dye-equivalent concentration |
| --- | --- |
| CC(=O)C1=C(O)C(=O)N(c2cccc(C(=O)O)c2)C1c1ccccc1F (stereo unspecified) | inconclusive: 4.3 nM |
| CCOc1nc(-c2ccc(OC)cc2)ccc1-c1noc(-c2cccnc2)n1 | active: 13 nM |
| CCCCCC[C@@H]([C@H](C)O)n1cnc2c(N)ncnc21 | inconclusive: 9.7 nM |
| Cc1cccc2nc(CSc3nnnn3-c3ccccc3)cn12 | inconclusive: 1.2 nM |
| Cc1ccc(OCC(O)CNS(=O)(=O)c2ccccc2C(=O)N2CCCCC2)cc1 (stereo unspecified) | inconclusive: 1.9 nM |
| COc1cc(N)cc(NC(=O)c2ccncc2)c1 | inconclusive: 7.8 nM |
| Cc1nnc(NC(=O)CSc2ccccn2)s1 | inactive |
| Cc1c(NC(=O)CSc2ccc3c(c2)OCCO3)c(=O)n(-c2ccccc2)n1C | inconclusive: 1.2 nM |
| COc1ccc(-c2cc(=O)oc3c(C)c(O)c(CN(C)C)cc23)cc1 | active: 96 nM |
| O=C(Nc1ccc(Cl)cc1C(=O)Nc1ccc(Br)cn1)c1ccco1 | active: 49 nM |
| Cc1nnc(NC(=O)C2CCCN(c3ncccn3)C2)s1 (stereo unspecified) | inconclusive: 1.1 nM |
| Cc1cc(-n2c(SCC(=O)NCc3cccs3)nc3n[nH]c(C)c3c2=N)ccc1Cl | inconclusive: 3.7 nM |
| CCCc1nc2c3cnn(-c4cccc(Cl)c4)c3ncn2n1 | inactive |
| Cn1c2ccccc2c(=O)n2c(=O)c3ccccc3cc12 | inconclusive: 2.6 nM |
| COc1ccc(C2NC(C(=O)O)CS2)cc1COCC(F)(F)F (stereo unspecified) | inactive |
| CCOC(=O)c1c(CN2CCN(C)CC2)oc2ccc(O)cc12 | inconclusive: 1.6 nM |
| CC1=CC(C)(C)N2C(=O)C3(C(C#N)=C(N)OC4=C3C(=O)CC(C)(C)C4)c3cccc1c32 (stereo unspecified) | inconclusive: 2.4 nM |
| CCN(C(=O)COC(=O)c1cnc(C)cn1)C1CCCCC1 | inconclusive: 3 nM |
| O=C(c1ccccc1)c1nc[nH]c1C(=O)Nc1ccccn1 | inactive |

| Structure (SMILES) | max dye-equivalent concentration |
| --- | --- |
| Cc1ccccc1OCc1nc(-c2ccccc2)no1 | inconclusive: 1.2 nM |
| COc1cc(-c2nc(S(=O)(=O)c3ccccc3)c(N3CCOCC3)o2)cc(OC)c1OC | inactive |
| O=C(O)c1ccccc1NCn1c(=S)sc2ccccc21 | inactive |
| CCCOc1ccc(C2/C(=C(/O)c3ccc(F)cc3)C(=O)C(=O)N2CCCN(C)C)cc1 (stereo unspecified) | inconclusive: 1.7 nM |
| CCOC(=O)N1CCC(NC(=O)c2cc(S(=O)(=O)N3CCCC3)cn2C)CC1 | inactive |
| COC(=O)C1=C(C)NC(C)=C(C(=O)OC)C1c1cc2cc(C)ccc2[nH]c1=O | active: 200 nM |
| COc1cc2c(cc1OC)CN(CC(=O)NC(=O)NCc1ccco1)CC2 | active: 70 nM |
| COc1cc(-c2nc(Cc3ccccc3Cl)no2)cc(OC)c1OC | inconclusive: 1.1 nM |
| COc1ccc(-c2cc(C(=O)OC3CCOC3=O)c3ccccc3n2)cc1OC (stereo unspecified) | inactive |
| Cc1cc2cc(CCNS(C)(=O)=O)c(=O)[nH]c2cc1C | inconclusive: 1.6 nM |
| CCOC(=O)N1CCN(c2nc3ccccc3nc2C(C#N)S(=O)(=O)c2ccc(C)cc2)CC1 (stereo unspecified) | active: 12 nM |
| CC(NC(=O)c1ccccc1)c1nc2ccccc2n1Cc1ccc(C#N)cc1 (stereo unspecified) | inconclusive: 2.3 nM |
| CN(C)C(=O)c1ccc(-c2nc(NCc3cccs3)c3ccccc3n2)cc1 | inactive |
| CCN(CC)CCN1C(=O)C(O)=C(C(=O)c2ccco2)C1c1ccccn1 (stereo unspecified) | inconclusive: 3.7 nM |
| CCOC(=O)c1sc(-c2ccc(OC)cc2)cc1N | active: 23 nM |
| NC(=O)c1cc[n+](CC2=C(C(=O)[O-])N3C(=O)[C@@H](NC(=O)Cc4cccs4)[C@@H]3SC2)cc1 | inconclusive: 3.7 nM |
| O=C(NCc1ccco1)c1cnn2c(C(F)F)cc(-c3ccccc3)nc12 | active: 200 nM |
| COc1ccc(S(=O)(=O)Nc2ccccc2C(F)(F)F)cc1 | inactive |
| CC(C)n1c(SCC(=O)Nc2ccccc2N2CCCCC2)nc2c1c(=O)n(C)c(=O)n2C | inconclusive: 1.3 nM |

As entered above:
max dye-equivalent concentration with `CCOC(=O)c1sc(-c2ccc(OC)cc2)cc1N` is entered as active: 23 nM
max dye-equivalent concentration with `COc1ccc(-c2cc(C(=O)OC3CCOC3=O)c3ccccc3n2)cc1OC` (stereo unspecified) is entered as inactive

(further entries)

| Structure (SMILES) | max dye-equivalent concentration |
| --- | --- |
| CN(C)C(=O)c1c(-c2ccccc2)oc2ccc(O)cc12 | active: 240 nM |
| O=c1cc(C(F)(F)F)c2sc(N3CCCCC3)nc2[nH]1 | active: 4700 nM |
| CCOC(=O)C(NC(=O)OC(C)C)(Nc1nccs1)C(F)(F)F (stereo unspecified) | inconclusive: 3.1 nM |
| CCOc1ccccc1C1N(c2ccc(F)cc2)C(=O)C2CCCN21 (stereo unspecified) | inconclusive: 2.3 nM |
| Cc1ccc2nc(NC3=NCN(C4CCCCC4)CN3)nc(C)c2c1 | inconclusive: 1.5 nM |
| CC(C)Oc1ccc(C2CC(=O)NC3=C2C(=O)CCC3)cc1 (stereo unspecified) | inconclusive: 2 nM |
| CC(=O)c1ccc(N2CCN(C(=O)c3ccc(OCc4c(C)noc4C)cc3)CC2)cc1 | inconclusive: 3.1 nM |
| Cc1cccc(-n2c(CCN3C(=O)c4ccccc4C3=O)nc3ccccc3c2=O)n1 | inconclusive: 3.6 nM |
| COCCCN(C(=O)c1ccco1)c1nc(-c2cc(OC)ccc2OC)cs1 | inconclusive: 6.3 nM |
| CC(C)n1nc(C(=O)Nc2nc3ccc(S(C)(=O)=O)cc3s2)c2ccccc2c1=O | active: 45 nM |
| CC(C)C(=O)N1CCN(CCN=CC2=C(O)CC(c3ccco3)CC2=O)CC1 (stereo unspecified) | inactive |
| N#CCCCCn1c(-c2cncs2)nc2ccccc21 | inconclusive: 1.6 nM |
| O=[N+]([O-])c1ccc(CSc2ncnc3c2ncn3[C@@H]2O[C@@H](CO)[C@@H](O)[C@H]2O)cc1 | inactive |
| Cc1ccc2[nH]c3c(=O)n(CCN4CCNCC4)cnc3c2c1 | inconclusive: 1.5 nM |
| Cc1ccc(NC(=O)c2ccco2)cc1NC(=O)CSc1nnc(-c2cccs2)n1C | inactive |
| O=C(Nc1ccccc1Cl)NC1(C(=O)NCCCN2CCOCC2)CCCCC1 | inconclusive: 1.6 nM |
| COc1ccccc1N1C(=O)CC(Sc2nccc(C)n2)C1=O (stereo unspecified) | inconclusive: 1.6 nM |
| CC1=C(C(=O)Nc2ccccc2C)C(c2ccc(C)o2)N2C(=O)CSC2=N1 (stereo unspecified) | inconclusive: 4.6 nM |
